Laboratory results from PubChem BioAssay AID1671190 (National Center for Advancing Translational Sciences (NCATS), 2021).
Values joined by “and” are separate entries in the source; they are usually repeats but may differ in a detail not shown here. Equal values may be shown once. The campaign covered roughly 580,000 compounds. About 6,100 (1.1%) were called active. This list was built around the results that the source calls inconclusive (neither active nor inactive); the mix of calls is not that of the screen. The call rests on the fitted dose curve; in most records, active means well fitted inhibition curve with a large enough effect; inconclusive means small, poorly fitted or top-dose-only effect, or another doubt; inactive means no such curve, though single readings can be large or run the other way. Potencies beside an inconclusive call are fits to weak or partial responses and may not hold up.

Sequences of proteins named here, by UniProt entry; tags and fusion partners are left off. A change or cut given only in a name is not applied to a line headed by its entry.
UniProt P18054: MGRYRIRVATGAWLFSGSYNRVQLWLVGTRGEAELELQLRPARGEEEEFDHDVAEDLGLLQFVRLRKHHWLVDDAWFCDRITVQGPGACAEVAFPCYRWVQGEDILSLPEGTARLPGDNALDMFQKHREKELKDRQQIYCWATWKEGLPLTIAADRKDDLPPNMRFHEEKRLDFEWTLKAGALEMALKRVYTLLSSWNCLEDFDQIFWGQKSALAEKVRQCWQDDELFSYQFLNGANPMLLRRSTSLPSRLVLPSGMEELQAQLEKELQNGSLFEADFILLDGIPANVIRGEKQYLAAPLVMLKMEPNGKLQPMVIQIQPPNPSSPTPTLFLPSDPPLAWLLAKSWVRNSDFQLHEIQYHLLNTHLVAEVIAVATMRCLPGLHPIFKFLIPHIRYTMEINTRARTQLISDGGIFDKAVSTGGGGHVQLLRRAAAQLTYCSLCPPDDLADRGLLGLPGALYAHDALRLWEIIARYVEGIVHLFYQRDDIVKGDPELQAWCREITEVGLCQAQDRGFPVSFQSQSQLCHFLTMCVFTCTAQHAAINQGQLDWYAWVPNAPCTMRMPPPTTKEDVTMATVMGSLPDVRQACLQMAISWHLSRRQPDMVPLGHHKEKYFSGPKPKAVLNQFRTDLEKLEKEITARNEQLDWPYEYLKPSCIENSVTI

target: Polyunsaturated fatty acid lipoxygenase ALOX12 (Homo sapiens) (UniProt P18054); assay: Primary qHTS assay for inhibitors of human arachidonate 12S-lipoxygenase (ALOX12): Round 2; settings: purified 12hLO, xylenol orange hydroperoxide absorbance; series mostly up to 108 µM
Outline: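 Purified human 12hLO (150 nM final) in 25 mM Hepes, 0.01% Triton X-100, pH 7.0 was preincubated 15 min at room temperature with compound. Then 40 uM arachidonic acid was added, 30 min. Hydroperoxide was read by Fe-XO absorbance ratio 573/405 nm.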
Potency means the concentration at half of the fitted maximal effect.

Row | SMILES | Potency
1 | CCOc1ccc(OCCCCOc2cccc(Br)c2)cc1 | inconclusive: 31.6 µM [inhibitor, single point]
2 | CCCCN(C(=O)C(=O)c1c(C)[nH]c2ccccc12)c1ccccc1 | inactive
3 | Cc1ccc(CN2C[C@@H]3C(=O)N(CCCN4CCCC4=O)C(=O)[C@@H]3C2)cc1 | inactive
4 | Cc1ccccc1Nc1cnc2ccc(-n3ccnc3)nn12 | inconclusive: 79.4 µM [inhibitor, partial curve]
5 | C/C(CCc1ccc2c(c1)OCO2)=N\N=C(/N)SC1CC(=O)N(c2ccccc2F)C1=O (stereo not given) | inactive
6 | C/C=C/C=C/C(=O)NCc1ccc(OC)cc1 | inconclusive: 15.8 µM [inhibitor, full curve, poor fit]
7 | COc1cc2c(cc1OC)C(c1ccc(-c3ccccc3Cl)o1)=NCC2 | active: 39.8 µM
8 | CC(C)n1cnc2c(oc3ccccc32)c1=O | inconclusive: 1 µM [inhibitor, full curve, poor fit]
9 | O=C1c2ccccc2NC(c2cccc(F)c2)N1Cc1ccccc1 (stereo not given) | inconclusive: 141 µM [inhibitor, partial curve, poor fit]
10 | Cn1c(=O)c2c(nc3n2CC(O)CN3c2ccc(O)cc2)n(C)c1=O (stereo not given) | inconclusive: 31.6 µM [inhibitor, single point]
11 | CN(CC(=O)NCc1cccs1)CC(=O)Nc1ccccc1Cl | inconclusive: 0.199 µM [inhibitor, full curve, poor fit]
12 | S=C(NCc1cccnc1)Nc1cc(Cl)cc(Cl)c1 | inactive
13 | COC(=O)c1ccc2nc(C[C@@H]3C[C@@H](C(C)C)[C@H](CNS(=O)(=O)c4ccccc4)C=C3C)[nH]c2c1 | inactive
14 | COc1ccccc1NC(=O)N[C@H]1CC[C@@]23CCCN2C(=O)CCC[C@H]3[C@H]1C | inconclusive: 112 µM [inhibitor, single point]
15 | COc1ccccc1C1/C(=C(/O)c2ccc(C)cc2)C(=O)C(=O)N1CC(C)O (stereo not given) | inconclusive: 5.01 µM [inhibitor, full curve, poor fit]
16 | O=C(Nc1ccccc1N1CCCCC1)c1ccc([N+](=O)[O-])o1 | inconclusive: 39.8 µM [inhibitor, single point]
17 | CC(OC(=O)c1ccc(Br)c(S(=O)(=O)N2CCOCC2)c1)C(=O)NC1CCCCC1C (stereo not given) | inconclusive: 79.4 µM [inhibitor, partial curve, poor fit]
18 | C=CCNC(=O)c1ccc(-c2nnc3ccc(NC(=O)C4CCC4)cn23)cc1 | inactive
19 | CSc1nc(C)cc(Nc2cccc(C(=O)O)c2)n1 | inconclusive: 56.2 µM [inhibitor, partial curve, poor fit]
20 | O=C1CCCc2c1cc(C(=O)O)c(=O)n2-c1ccccc1 | inconclusive: 8.91 µM [inhibitor, partial curve, poor fit]
21 | Cc1cccc(-n2c(SCC(N)=O)nnc2-c2ccco2)c1 | inconclusive: 1.78 µM [inhibitor, full curve, poor fit]
22 | COC(=O)c1cc(S(=O)(=O)N(C)C2CCCCC2)c[nH]1 | inactive

Of the compounds above, two have a COOH group:
Row | SMILES | Potency
19 | CSc1nc(C)cc(Nc2cccc(C(=O)O)c2)n1 | inconclusive: 56.2 µM [inhibitor, partial curve, poor fit]
20 | O=C1CCCc2c1cc(C(=O)O)c(=O)n2-c1ccccc1 | inconclusive: 8.91 µM [inhibitor, partial curve, poor fit]

Continued:

Row | SMILES | Potency
23 | O=C1C(N2CCN(S(=O)(=O)c3cccs3)CC2)CCN1Cc1ccccn1 (stereo not given) | inconclusive: 28.2 µM [inhibitor, full curve]
24 | Cn1nc(C(=O)N2CCOCC2)cc1C(=O)Nc1ccc(F)c(F)c1 | inconclusive: 1.12 µM [inhibitor, partial curve, poor fit]
25 | O=c1c(O)c(-c2ccc(O)cc2)oc2cc(O)cc(O)c12 | inconclusive: 5.44 µM [inhibitor, partial curve, poor fit]
26 | NC(=O)CC(NC(=O)Cc1cccc2ccccc12)c1ccc(NC2CCCCC2)c([N+](=O)[O-])c1 (stereo not given) | inconclusive: 4.47 µM [inhibitor, full curve, poor fit]
27 | Cc1ccc(C(=O)OCC(=O)Nc2sc3c(c2C#N)CCCC3)cc1NC(=O)c1ccco1 | active: 35.5 µM
28 | Cc1cc(/C=C2\SC(=S)N(C)C2=O)c(C)n1-c1cccc(O)c1 | inconclusive: 50.1 µM [inhibitor, partial curve, poor fit]
29 | Cc1ccc(Nc2nc(N)nc(CC#N)n2)cc1 | inactive
30 | O=C(c1ccc2ccccc2c1)N(Cc1ccc2[nH]ccc2c1)C1CC1 | inconclusive: 56.2 µM [inhibitor, single point]
31 | Cc1ccc(NC(=O)CSc2n[nH]c(=O)c3cc(-c4ccco4)nn23)cc1 | inconclusive: 14.1 µM [inhibitor, full curve, poor fit]
32 | CCOCCOC(C)C(=O)NCC(CC)c1ccccc1 (stereo not given) | inactive
33 | Cc1nnc(-c2cc(C(=O)Nc3cccnc3)ccn2)n1CCc1ccccc1 | inactive
34 | COC(=O)c1ccc(C2C(c3ccc(C)cc3)=C(O)C(=O)N2CCc2ccccc2)cc1 (stereo not given) | inconclusive: 3.55 µM [inhibitor, partial curve, poor fit]
35 | CCOc1ccc2nc(N3CCC(C(=O)N4CCN(C5CCCCC5)CC4)CC3)sc2c1 | inactive
36 | COc1ccccc1CNc1ncncc1-c1ccoc1 | inconclusive: 5.62 µM [inhibitor, full curve, poor fit]
37 | CCC(=O)Nc1ccc(-c2csc(NCCOC)n2)cc1 | active: 14.1 µM
38 | O=C(COC(=O)Cc1ccc([N+](=O)[O-])cc1)NCc1ccc2c(c1)OCO2 | inconclusive: 70.8 µM [inhibitor, partial curve, poor fit]
39 | Cc1ccc(-c2n[nH]c3c2C(c2ccccc2)N(c2ccc(C(=O)O)cc2)C3=O)cc1 (stereo not given) | inconclusive: 50.1 µM [inhibitor, partial curve, poor fit]
40 | COc1cc(CN2CCNC(=O)C2CC(=O)N(C)CCN2CCOCC2)cc(OC)c1 (stereo not given) | inconclusive: 50.1 µM [inhibitor, partial curve, poor fit]
41 | Cc1ccn2c(-c3csc(NCc4ccccc4)n3)c(C)nc2c1 | active: 11.2 µM
42 | C[C@@H]1O[C@@H](OC2C(O)C(OCCc3ccc(O)c(O)c3)OC(CO)C2OC(=O)/C=C/c2ccc(O)c(O)c2)[C@H](O)[C@H](O)[C@H]1O (stereo not given in full) | inconclusive: 5.62 µM [inhibitor, full curve, poor fit]
43 | COc1cc(/C=C2/C(=O)N(c3ccc([N+](=O)[O-])cc3)N=C2N2CCOCC2)ccc1O | inactive
44 | COc1cccc(CNC(=O)c2ccc3c(c2)sc2nc(-c4ccccc4)cn23)c1OC | inconclusive: 14.1 µM [inhibitor, partial curve, poor fit]

Row | SMILES | Potency
45 | COC(=O)CNC(=O)c1cc(-c2cccc(C(F)(F)F)c2)c2nncn2n1 | inconclusive: 56.2 µM [inhibitor, partial curve, poor fit]
46 | Cc1ccc(Nc2nc(-c3ccc(F)cc3)cs2)nc1 | inconclusive: 44.7 µM [inhibitor, partial curve]
47 | CC(=NNC(=S)N(Cc1ccccn1)Cc1ccccn1)c1cnccn1 | inconclusive: 44.7 µM [inhibitor, partial curve, poor fit]
48 | Cc1nnsc1C(=O)NCc1c(F)cccc1Cl | inconclusive: 126 µM [inhibitor, single point]
49 | O=c1[nH]cnc2c1C1(CCCC1)Cc1ccccc1-2 | inconclusive: 126 µM [inhibitor, single point]
50 | CCCCOC(=O)C1CCCC(C)N1 (stereo not given) | inactive and inconclusive: 31.6 µM [inhibitor, partial curve, poor fit]
51 | N#CC1=C(N)NC(SCc2ccccc2)=C(C#N)C12CCCCC2 | inconclusive: 31.6 µM [inhibitor, partial curve, poor fit]
52 | Cc1ccc(-c2nc3scc(CCNS(=O)(=O)c4c(C)noc4C)n3n2)cc1 | inconclusive: 141 µM [inhibitor, partial curve, poor fit]
53 | O=C(NCC1CN(C(=O)Cc2cccc(OC(F)(F)F)c2)CC12CN(c1ccccc1)C2)Nc1ccccc1 (stereo not given) | inconclusive: 25.1 µM [inhibitor, full curve]
54 | O/N=C1\CCCc2c1nc(-c1ccccc1)n2O | inconclusive: 22.4 µM [inhibitor, partial curve, poor fit]
55 | CC(C)Oc1ccc(CN2CCC(n3nccc3NC(=O)C3CC3)CC2)cc1 | inconclusive: 79.4 µM [inhibitor, single point]
56 | CCN1C(=O)[C@H]2[C@H]3CN=C(SCc4ccccc4)N3[C@@](CC)(C(=O)OC)[C@H]2C1=O | inconclusive: 44.7 µM [inhibitor, partial curve, poor fit]
57 | N#C/C(=C(/N)Sc1ccc(N)cc1)c1ccccc1C(F)(F)F | inconclusive: 79.4 µM [inhibitor, partial curve, poor fit]
58 | COc1ccc2cc(C(=O)NC3CCN(C(C)=O)CC3)[nH]c2c1 | inactive
59 | O=C(c1cc(=O)[nH]c(=O)[nH]1)N1CCC2(CC1)OCCCC2O (stereo not given) | inconclusive: 63.1 µM [inhibitor, partial curve, poor fit]
60 | COc1ccc(NS(=O)(=O)NC(=O)c2c(C)n(C)c3ccccc23)cc1 | inactive
61 | CN(C)C[C@@H]1CN(c2ccncn2)C[C@H]1NC(=O)Cc1ccsc1 | inactive
62 | CCCC(=O)N1CC(=O)Nc2ccc(C)cc2C1c1ccccc1 (stereo not given) | inactive
63 | Cc1ccc([N+](=O)[O-])cc1N/C=C/C(=O)c1ccco1 | inactive
64 | CCOC(=O)c1ccc(Oc2coc3cc(OCc4ccccc4)ccc3c2=O)cc1 | inactive
65 | Cc1nc2ccc(S(=O)(=O)N(CC(=O)N3CCC(C)CC3)Cc3ccccc3)cc2s1 | inconclusive: 100 µM [inhibitor, partial curve, poor fit]

Arranged by molar mass (ascending): part of the list above.
Row | SMILES | Potency
58 | COc1ccc2cc(C(=O)NC3CCN(C(C)=O)CC3)[nH]c2c1 | inactive
3 | Cc1ccc(CN2C[C@@H]3C(=O)N(CCCN4CCCC4=O)C(=O)[C@@H]3C2)cc1 | inactive
27 | Cc1ccc(C(=O)OCC(=O)Nc2sc3c(c2C#N)CCCC3)cc1NC(=O)c1ccco1 | active: 35.5 µM
